Data on 40 compounds can be found in PubChem BioAssay AID2685 (National Center for Advancing Translational Sciences (NCATS), 2010).

By AC50 is commonly meant the concentration at which the activity in the assay is half-maximal.

This test can be described thus: qHTS Assay for Lipid Storage Modulators in Drosophila S3 Cells.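 For cell number change: cells counted by Cell Tracker Red CMTPX staining in the red channel.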 The settings on record: BODIPY lipid droplet fluorescence, 18-24 h; for cell number change: measured here: cell count max response, cells fed with added oleic acid. An outline of the steps:
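Laser-scanning cytometry quantifies lipid droplet accumulation (500–530 nm total intensity; droplet/cell object ratio) in oleic acid-fed (400 uM added) Drosophila S3 cells treated with a concentration series. 20 uM Triacsin C defined 100% inhibition.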

Where [1] appears, read: measured here: cell number channel AC50, cells fed with added oleic acid.
The mark [2] stands for this setting: measured here: lipid fluorescence (Fed channel) AC50, cells fed with added oleic acid.

This is one part of the list. These are further read-outs of the screen, such as a control signal, another cell line or another target. No call is given for them. Most of these compounds were active or inconclusive in the main read-out, so they are no random draw. Words in brackets tell the shape of the fitted curve; partial curves, single points and poor fits give uncertain potencies.

With `O=C(CSc1nnc(-c2ccc(Cl)cc2Cl)n1C1CCCCC1)N1CCCC1`, the cell number change came out at 85.6%. Besides, the AC50 under setting [1] is 3.26 µM [rising, full curve]. In addition, the half-maximal activity concentration (AC50) under setting [2] was 4.61 µM [rising, single point].

In the case of `C/C(=N\NC(=O)CN1CCOCC1)C(C)(C)C`, the cell number change is -20.7%. In addition, the AC50 under setting [2] was 23.1 µM [falling, partial curve]. For the compound `CCOc1nc(OCC)nc(N2CCC(C)CC2)n1`, the cell number change is -84.4%. Turning to `Cc1ccc(C(=O)Nc2cccc(C(=O)NC3CCCC3)c2)cc1`, the AC50 under setting [2] was 18.4 µM [falling, single point]. For `COc1ccc(Cc2nnc(NC(=O)Nc3ccccc3)s2)cc1OC`, the cell number change was -10.7%. Also, under setting [2], the AC50 was 1.84 µM [rising, single point]. Consider `COc1ccc(-c2nc(NC(=O)c3n[nH]c(=O)c4ccccc34)sc2C)cc1`, for which the cell number change was determined as 37.3%. The AC50 under setting [1] was 13 µM [rising, partial curve]. For the same compound, the AC50 under setting [2] was 20.6 µM [rising, partial curve]. In the case of `c1ccc(CN2CCN(Cc3cn4cccnc4n3)CC2)cc1`, the AC50 under setting [1] was 0.651 µM [falling, full curve] and the AC50 under setting [2] is 0.651 µM [falling, full curve].

Turning to `Cc1[nH]c2ccc(-c3nnc(SCC(=O)N4CCCc5ccccc54)o3)cc2c1C`, the cell number change was -0.348%. The AC50 under setting [2] was 1.46 µM [rising, full curve, poor fit]. Take `CCc1ccc(OCC(=O)N/N=C(\C)c2ccc(-n3ccnc3)cc2)cc1`: the cell number change worked out at 24.1%. Besides, the AC50 under setting [2] is 14.6 µM [rising, partial curve, poor fit].

With `CCC(CO)Oc1cc(NC(=O)c2ccc(F)cc2)c2ncn(C(C)C)c2c1` (stereo not given), the cell number change was 4.46%. The AC50 under setting [2] was 1.16 µM [falling, single point]. In the case of `CCOc1ccc(C(C(=O)NCC2CCCO2)N(C(=O)c2snc(C(N)=O)c2N)c2ccc(F)cc2)cc1` (stereo not given), the cell number change is -20.5%. Moreover, the AC50 under setting [2] was 29.1 µM [rising, single point]. On to `CC(C)(C)c1ccc(C(=O)NCCC(=O)Nc2ccc(S(=O)(=O)Nc3nccs3)cc2)cc1`, for which the cell number change is -19%. Same read-out and setting: next, `Cc1nnc(N2C(=O)C(=O)/C(=C(\O)c3ccc4c(c3)CC(C)O4)C2c2ccccc2)s1` (stereo not given): -20.4%. Take `CC(=O)Nc1ccc(S(=O)(=O)NC2=C(N3CCN(Cc4ccccc4)CC3)C(=O)c3ccccc3C2=O)cc1`: the cell number change was -38.7%. Also, the AC50 under setting [1] is 0.0731 µM [falling, full curve, poor fit]. Also, the AC50 under setting [2] is 2.91 µM [falling, partial curve, poor fit]. Take `CC1(C)CC(=O)C(C2C3=C(CC(C)(C)CC3=O)Oc3ccccc32)C(=O)C1` (stereo not given): the cell number change is -14.9%. With `O=C(Nc1nccs1)c1ccc(COc2ccccc2)o1`, the cell number change was -17%. Under setting [2], the AC50 was 6.51 µM [rising, single point]. Take `CCC(CC)C(=O)Nc1cc(Cl)ccc1C`: the cell number change was determined as 47.1%. In addition, under setting [1], the AC50 is 18.4 µM [rising, single point].

In the case of `COc1ccc(-c2c(C)nc(N)nc2-c2ccc(OCc3ccc(C)cc3)cc2O)cc1OC`, the cell number change amounted to 6.77%. Consider `O=C(CCl)Nc1cc(S(=O)(=O)N2CCCCCC2)ccc1Cl`, for which the cell number change was -47.3%. In addition, the AC50 under setting [1] was 2.91 µM [falling, partial curve]. `COCC(C)n1c(C)cc(C(=O)COC(=O)c2ccc3c(c2)NC(=O)CS3)c1C` (stereo not given): the cell number change was -38%. The AC50 under setting [2] was 20.6 µM [falling, partial curve]. Regarding `COc1ccc(C(C(=O)NCC2CCCO2)N(Cc2ccco2)C(=O)c2snc(C(N)=O)c2N)cc1OC` (stereo not given), the cell number change was 3.85%. In the case of `Cc1c(C(=O)NCC(C)C)sc2nc(-c3ccc(F)cc3)cn12`, the cell number change was found to be 116%. In addition, the AC50 under setting [1] was 2.31 µM [rising, partial curve]. Moreover, the AC50 under setting [2] was 2.06 µM [rising, partial curve].

Consider `O=C(c1ccc(Cn2cc(Br)cn2)cc1)N1N=C(C(F)F)CC1(O)C(F)F` (stereo not given), for which the cell number change is -3.6%. Besides, under setting [2], the AC50 is 0.00411 µM [falling, full curve, poor fit]. On to `CC(NC(=O)C1CCC1)c1ccc2c(c1)OCO2` (stereo not given), for which the cell number change turned out to be 18.3%. Same read-out and setting: next, `CC1CCCC(C)N1Cc1cn2ccccc2n1` (stereo not given): 11.3%. Turning to `Cc1ccc(-n2nc(-c3ccco3)cc2C(=O)NCc2cccnc2)cc1`, the cell number change was 1.38%. In addition, under setting [2], the AC50 was 0.731 µM [rising, full curve, poor fit]. For `COc1ccc(S(=O)(=O)N2CCCC(C(=O)Nc3cccc(C(C)=O)c3)C2)cc1` (stereo not given), the cell number change is -3.64%. For the compound `O=C(COc1ccccc1Br)NCc1ccccn1`, the AC50 under setting [1] was 6.51 µM [rising, single point]. On to `Clc1ccc(-c2csc(N3CCN(c4ccccc4)CC3)n2)cc1`, for which the cell number change was 14.5%. Besides, the AC50 under setting [1] was 0.259 µM [falling, partial curve, poor fit]. For the compound `Cc1c(-c2ccccc2)oc2c(C(=O)N3CCN(c4ccccc4F)CC3)cccc2c1=O`, the cell number change is 12.4%. In addition, the AC50 under setting [2] is 14.6 µM [rising, partial curve, poor fit]. In the case of `COCC(=O)Nc1nc2ccc(S(C)(=O)=O)cc2s1`, the cell number change came out at 9%. On to `CC(C)(C)OC(=O)N1CCC[C@H]1c1nnc(SCc2ccccc2F)o1`, for which the AC50 under setting [1] was 6.51 µM [rising, single point] and the AC50 under setting [2] is 0.092 µM [falling, full curve, poor fit]. Consider `CCN(CC)S(=O)(=O)c1cccc(C(=O)OCC(=O)c2ccc3c(c2)NC(=O)CO3)c1`, for which the cell number change turned out to be 12.4%. Under setting [2], the AC50 was 0.461 µM [rising, full curve, poor fit]. On to `CCOC(=O)N1CCN(C(=O)c2ccccc2NC(=O)c2ccc(C(C)(C)C)cc2)CC1`, for which the cell number change is -0.549%. Moreover, the AC50 under setting [2] was 0.146 µM [rising, full curve, poor fit]. Turning to `CN(CCc1ccccn1)c1ncnc2[nH]ncc12`, under setting [2], the AC50 was 1.84 µM [rising, partial curve]. In the case of `Cn1cc(/C=C2\SC(=S)N(NC(=O)c3ccccc3Cl)C2=O)c2ccccc21`, the cell number change was 7.29%. In addition, the AC50 under setting [2] is 4.11 µM [rising, single point].

Regarding `O=C1NC(c2ccccc2)=C(c2ccccc2)C1=O`, the cell number change was found to be 0.97%. For the same compound, under setting [2], the AC50 was 0.0291 µM [falling, full curve, poor fit].

Turning to `O=C(COc1ccc(Cl)cc1)OCC(=O)N1CCCCCC1`, the cell number change was -9.49%. Moreover, the AC50 under setting [2] was 7.31 µM [falling, partial curve]. With `CNC(=O)c1ccc(NC(=O)/C=C/c2cccc(F)c2)cc1`, the cell number change was found to be 22.1%. Also, under setting [2], the AC50 is 32.6 µM [rising, single point]. `Cc1ccc(NC(=O)C(=O)c2c(-c3ccccc3)cc3ccccn23)cc1S(=O)(=O)N1CCOCC1`: the AC50 under setting [2] is 29.1 µM [rising, partial curve].
